Positions count from the first letter of the chain named. Results are given in words; binding and its absence hold for the method and conditions named. A result given as binding can be weak or reduced; the word gives no strength.
B1: 3H5 (antibody, human IgG1, V domains shown)
VH: QVQLKESGPGLVAPSQSLSITCTVSGFSLTSYGVSWVRQPPGKGLEWLGVIWGDGSTNYHSALISRLSISKDNSKSQVFLKLNSLQTDDTATYYCAKPRWDDYAMDYWGQGTSVTVSS
VL: DIQMTQTTSSLSASLGDRVTISCRASQDISNYLNWYQQKPDGTVKLLIYYTSRLHSGVPSRFSGSGSGTDYSLTISNLEQEDIATYFCQQGNTLWTFGGGTKLEIK
B2: 12D12 (antibody, human IgG1, V domains shown)
VH: QVQLQQPGAELVKPGASVRMSCKASGYTFTSYWVHWVKQRPGQGLEWIGVIDPSDSYTSYNQNFKGKATLTVDTSSKTAYIHLSSLTSEDSAVYFCARGERYDGDYFAMDYWGQGTSVTVSS
VL: DIVMTQSPASLSVSVGETVTITCRASENIYSNLAWYQQKQGKSPQLLVYAATNLADGVPSRFSGSRSGTQYSLKINSLQSEDFGTYYCQHFWNTPRTFGGGTKLEIK
B3: 27H5 (antibody, human IgG1, V domains shown)
VH: QVQLKESGPGLVAPSQSLSITCTVSGFSLTSYGVSWVRQPPGKGLEWLGVIWGDGNTNYHSALISRLSISKDNSKSQVFLKLNSLQTDDTATYYCARTNWDGWFAYWGQGTLVTVSA
VL: DIVMTQSHKFMSTSVGDRVSITCKASQDVGTAVAWYQQKPGQSPKLLIYWASTRHTGVPDRFTGSGSGTDFTLTISNVQSEDLADYFCQQYRSYPLGTFGGGTKLEIK
B4: 48F12 (antibody, V domains shown)
VH: B1 VH with V50I, I64V, R99N, D102Y
VL: DIQMTQTTSSLSASLGDRVTISCRASQDISNYLNWYQQKVDGTVKLLISYTSRLHSGVPSRFSGSGSGTDYSLTISNLEQEDIATYFCQQGITLPLTFGAGTKLELK
B5: 1E4C (antibody, human IgG1, V domains shown)
VH: QRELQQSGPELVKPGASVNISCKASGYSFTNHYINWVKQRPGQGLEWIGWIFPGNGDTNYNEKFKGKATLTADTSSSTAYMQLSSLTSEDSAVYFCARTWNYDARWGYWGQGTTVTVSS
VL: DVVMTQTPAFLAVSLGQRATISCRASESIDSYGISFMHWYQQKPGQPPKVLIYRTSNLESGIPARFSGSGSRTDFTLTINPVEADDVATYYCQQSNEDPFTFGSGTKLEIK
B6: 1A9 (antibody, human IgG1, V domains shown)
VH: EVKLQQSGPDLVKPGASVKISCKASGYSFTNFYIHWVKQRPGQGLEWIGWIFPGNGETNYSEKFKGKATLTADTSSSTAYMQFNSLTYEDSAVYFCARTWNYDARWGYWGQGTTLTVSS
VL: B5 VL with F10S, E27D, S28G, H38R, K49T, V50L, T55A, N57T, D74N, S95T
B7: 3A7A (antibody, human IgG1, V domains shown)
VH: QVQLKESGPELVKPGTSVKISCKASGYNFRNYYIQWVKQRPGQGLEWIGWIFPGNNETNYNEKFKGKATLSADTSSTTAYMQLSSLTSEDSAVYFCARSWNYDARWGYWGQGTTVTVSS
VL: B5 VL with F10S, S28I, S31N, M37I, V50L, T55A, F75S, E83G, I110L

These binders were tested against anchored ILT2 D1-D2-D3 domain fragment protein (human) (assay: flow cytometry, CHO cells).

binding, binds:
B1, B2, B3, B4

The binders below were run against anchored ILT2 D1-D2 domain fragment protein (human) (assay: flow cytometry, CHO cells).

binding, binds:
B1, B2, B3, B4, B5, B6, B7

Each binder was assayed against anchored ILT2 D1 domain fragment protein (human) (assay: flow cytometry, CHO cells).

binding, binds:
B1, B2, B3, B4, B5, B6, B7
